# Source: the supplement of paper PMC10849652
# The chains behind the UniProt entries cited, without tags or fusion partners. Where a name states a change or a piece, a line headed by the entry shows the natural chain unless it says otherwise.
# UniProt O43402: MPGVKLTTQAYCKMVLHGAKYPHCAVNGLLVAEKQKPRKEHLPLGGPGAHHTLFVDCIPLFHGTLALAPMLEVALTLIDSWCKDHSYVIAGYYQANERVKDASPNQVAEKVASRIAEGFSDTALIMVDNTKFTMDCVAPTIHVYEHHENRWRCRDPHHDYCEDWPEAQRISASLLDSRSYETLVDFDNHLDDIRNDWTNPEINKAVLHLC
# UniProt P19525: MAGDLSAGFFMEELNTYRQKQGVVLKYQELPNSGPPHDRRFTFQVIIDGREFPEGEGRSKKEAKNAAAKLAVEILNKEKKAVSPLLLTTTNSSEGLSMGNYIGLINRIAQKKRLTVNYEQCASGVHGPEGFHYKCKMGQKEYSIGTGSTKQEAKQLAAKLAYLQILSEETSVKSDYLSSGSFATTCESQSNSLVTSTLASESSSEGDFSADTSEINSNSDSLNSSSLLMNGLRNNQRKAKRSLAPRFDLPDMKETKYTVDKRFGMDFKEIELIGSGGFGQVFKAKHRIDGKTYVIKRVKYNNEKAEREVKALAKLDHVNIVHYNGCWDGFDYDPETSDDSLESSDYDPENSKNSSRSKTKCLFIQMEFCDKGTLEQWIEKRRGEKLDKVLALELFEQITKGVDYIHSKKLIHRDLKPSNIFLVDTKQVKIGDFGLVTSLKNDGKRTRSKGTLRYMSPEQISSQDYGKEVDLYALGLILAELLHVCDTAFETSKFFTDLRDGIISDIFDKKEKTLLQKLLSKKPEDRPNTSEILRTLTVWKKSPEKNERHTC
# UniProt P23588, whole entry, looked up: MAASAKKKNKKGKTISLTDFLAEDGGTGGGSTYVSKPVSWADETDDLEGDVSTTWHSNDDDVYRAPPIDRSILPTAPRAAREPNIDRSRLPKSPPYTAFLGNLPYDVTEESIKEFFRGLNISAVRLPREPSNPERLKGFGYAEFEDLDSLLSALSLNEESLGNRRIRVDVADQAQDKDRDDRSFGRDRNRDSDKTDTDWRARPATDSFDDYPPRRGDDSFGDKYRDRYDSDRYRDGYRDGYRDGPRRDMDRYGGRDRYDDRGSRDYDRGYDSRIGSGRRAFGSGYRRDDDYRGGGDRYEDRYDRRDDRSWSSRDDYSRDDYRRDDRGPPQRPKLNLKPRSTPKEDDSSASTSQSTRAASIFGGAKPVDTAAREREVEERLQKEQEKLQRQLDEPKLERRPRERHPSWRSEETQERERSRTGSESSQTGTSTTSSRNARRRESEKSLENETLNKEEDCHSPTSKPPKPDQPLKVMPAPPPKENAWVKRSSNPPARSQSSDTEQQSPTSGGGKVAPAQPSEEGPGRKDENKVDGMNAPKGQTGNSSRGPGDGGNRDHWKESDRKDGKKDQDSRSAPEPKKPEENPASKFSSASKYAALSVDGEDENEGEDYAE
# UniProt P38919, whole entry, looked up: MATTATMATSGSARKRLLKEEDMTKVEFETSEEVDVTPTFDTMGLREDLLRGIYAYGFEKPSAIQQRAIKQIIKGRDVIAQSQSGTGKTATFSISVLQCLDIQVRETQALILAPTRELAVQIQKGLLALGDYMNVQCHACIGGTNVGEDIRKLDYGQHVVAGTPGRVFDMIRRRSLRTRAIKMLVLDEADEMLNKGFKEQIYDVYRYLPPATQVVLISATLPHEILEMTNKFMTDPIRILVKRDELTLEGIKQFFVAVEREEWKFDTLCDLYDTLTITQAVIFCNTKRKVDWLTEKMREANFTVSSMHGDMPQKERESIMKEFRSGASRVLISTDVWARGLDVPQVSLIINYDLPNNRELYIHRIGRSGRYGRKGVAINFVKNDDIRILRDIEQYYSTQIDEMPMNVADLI
# UniProt Q9NRA8: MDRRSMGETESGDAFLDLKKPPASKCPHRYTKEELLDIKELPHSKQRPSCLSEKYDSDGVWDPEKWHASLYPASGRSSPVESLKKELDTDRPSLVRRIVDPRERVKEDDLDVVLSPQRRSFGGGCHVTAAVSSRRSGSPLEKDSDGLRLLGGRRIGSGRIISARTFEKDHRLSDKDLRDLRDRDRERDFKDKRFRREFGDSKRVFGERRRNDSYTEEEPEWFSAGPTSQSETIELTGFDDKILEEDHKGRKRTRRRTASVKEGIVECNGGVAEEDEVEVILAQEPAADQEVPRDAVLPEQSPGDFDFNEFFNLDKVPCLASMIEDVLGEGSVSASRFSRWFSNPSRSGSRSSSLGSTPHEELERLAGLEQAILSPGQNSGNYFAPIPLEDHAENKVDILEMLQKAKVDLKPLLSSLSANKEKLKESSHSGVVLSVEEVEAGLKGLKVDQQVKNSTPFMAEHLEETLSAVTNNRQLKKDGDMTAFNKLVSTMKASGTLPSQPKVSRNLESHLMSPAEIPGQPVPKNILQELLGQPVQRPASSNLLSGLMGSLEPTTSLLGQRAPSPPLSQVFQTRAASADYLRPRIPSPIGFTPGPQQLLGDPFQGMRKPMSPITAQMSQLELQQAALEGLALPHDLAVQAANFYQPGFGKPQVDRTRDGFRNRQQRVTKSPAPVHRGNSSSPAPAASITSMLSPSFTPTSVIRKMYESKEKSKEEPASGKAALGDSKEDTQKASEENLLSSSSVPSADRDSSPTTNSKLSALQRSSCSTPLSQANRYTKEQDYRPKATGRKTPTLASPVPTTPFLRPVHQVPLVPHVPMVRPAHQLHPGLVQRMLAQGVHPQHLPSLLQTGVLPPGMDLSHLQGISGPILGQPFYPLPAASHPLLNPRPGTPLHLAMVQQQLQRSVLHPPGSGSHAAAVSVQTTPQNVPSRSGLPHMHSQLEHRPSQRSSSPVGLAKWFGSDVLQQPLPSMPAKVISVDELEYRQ
# UniProt P78344: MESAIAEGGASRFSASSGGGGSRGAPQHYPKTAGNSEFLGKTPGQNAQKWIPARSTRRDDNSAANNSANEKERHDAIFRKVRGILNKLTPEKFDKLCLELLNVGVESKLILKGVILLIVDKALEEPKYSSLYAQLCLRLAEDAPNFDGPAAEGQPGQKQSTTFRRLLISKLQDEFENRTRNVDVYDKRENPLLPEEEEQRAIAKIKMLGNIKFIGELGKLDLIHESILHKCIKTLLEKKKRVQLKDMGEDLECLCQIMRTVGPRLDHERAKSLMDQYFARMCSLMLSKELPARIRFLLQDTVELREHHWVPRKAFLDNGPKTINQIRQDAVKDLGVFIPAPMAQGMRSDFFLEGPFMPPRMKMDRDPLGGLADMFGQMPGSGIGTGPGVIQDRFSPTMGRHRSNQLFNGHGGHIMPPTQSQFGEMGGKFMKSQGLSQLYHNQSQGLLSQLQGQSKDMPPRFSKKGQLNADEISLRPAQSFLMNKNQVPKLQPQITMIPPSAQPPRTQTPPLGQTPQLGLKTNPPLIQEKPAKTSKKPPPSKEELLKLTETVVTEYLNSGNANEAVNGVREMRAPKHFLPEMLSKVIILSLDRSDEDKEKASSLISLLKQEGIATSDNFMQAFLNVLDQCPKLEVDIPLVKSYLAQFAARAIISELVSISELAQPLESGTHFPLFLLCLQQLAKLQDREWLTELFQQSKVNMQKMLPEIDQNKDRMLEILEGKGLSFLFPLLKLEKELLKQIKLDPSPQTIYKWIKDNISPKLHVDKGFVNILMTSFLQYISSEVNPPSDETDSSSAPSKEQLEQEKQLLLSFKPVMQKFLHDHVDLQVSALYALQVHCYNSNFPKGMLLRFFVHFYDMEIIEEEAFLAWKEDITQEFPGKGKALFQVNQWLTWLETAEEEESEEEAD
# UniProt Q9UHY7: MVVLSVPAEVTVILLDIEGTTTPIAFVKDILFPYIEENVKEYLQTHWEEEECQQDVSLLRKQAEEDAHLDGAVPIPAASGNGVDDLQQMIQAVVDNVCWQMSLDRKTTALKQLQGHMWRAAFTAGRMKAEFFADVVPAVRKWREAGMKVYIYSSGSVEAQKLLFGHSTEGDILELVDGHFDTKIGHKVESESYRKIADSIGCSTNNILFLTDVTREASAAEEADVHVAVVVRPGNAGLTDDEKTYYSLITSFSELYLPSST
# UniProt Q32P44: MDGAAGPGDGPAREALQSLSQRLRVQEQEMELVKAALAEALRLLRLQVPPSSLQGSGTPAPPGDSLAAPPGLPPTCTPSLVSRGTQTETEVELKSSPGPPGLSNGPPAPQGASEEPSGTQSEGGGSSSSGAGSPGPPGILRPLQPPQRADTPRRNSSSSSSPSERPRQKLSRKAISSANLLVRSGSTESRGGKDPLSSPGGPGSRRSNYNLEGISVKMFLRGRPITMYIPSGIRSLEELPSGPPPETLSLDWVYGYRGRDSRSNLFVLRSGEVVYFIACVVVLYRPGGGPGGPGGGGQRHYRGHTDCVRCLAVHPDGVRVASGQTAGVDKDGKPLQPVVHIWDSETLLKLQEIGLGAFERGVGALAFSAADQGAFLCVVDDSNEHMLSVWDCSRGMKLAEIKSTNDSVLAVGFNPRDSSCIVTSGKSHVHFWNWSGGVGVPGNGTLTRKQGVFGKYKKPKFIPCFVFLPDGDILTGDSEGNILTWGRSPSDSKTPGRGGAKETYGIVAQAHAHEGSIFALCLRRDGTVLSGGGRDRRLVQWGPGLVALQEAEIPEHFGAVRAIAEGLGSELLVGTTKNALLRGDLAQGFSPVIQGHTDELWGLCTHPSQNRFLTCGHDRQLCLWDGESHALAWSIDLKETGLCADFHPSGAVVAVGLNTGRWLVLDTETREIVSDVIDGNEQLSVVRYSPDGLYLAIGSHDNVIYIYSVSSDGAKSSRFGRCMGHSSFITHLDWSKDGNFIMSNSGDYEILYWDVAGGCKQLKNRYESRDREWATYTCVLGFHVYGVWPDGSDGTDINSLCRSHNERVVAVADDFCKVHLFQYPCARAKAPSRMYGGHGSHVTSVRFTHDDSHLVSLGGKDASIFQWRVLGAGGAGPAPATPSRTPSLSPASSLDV
# UniProt O60841: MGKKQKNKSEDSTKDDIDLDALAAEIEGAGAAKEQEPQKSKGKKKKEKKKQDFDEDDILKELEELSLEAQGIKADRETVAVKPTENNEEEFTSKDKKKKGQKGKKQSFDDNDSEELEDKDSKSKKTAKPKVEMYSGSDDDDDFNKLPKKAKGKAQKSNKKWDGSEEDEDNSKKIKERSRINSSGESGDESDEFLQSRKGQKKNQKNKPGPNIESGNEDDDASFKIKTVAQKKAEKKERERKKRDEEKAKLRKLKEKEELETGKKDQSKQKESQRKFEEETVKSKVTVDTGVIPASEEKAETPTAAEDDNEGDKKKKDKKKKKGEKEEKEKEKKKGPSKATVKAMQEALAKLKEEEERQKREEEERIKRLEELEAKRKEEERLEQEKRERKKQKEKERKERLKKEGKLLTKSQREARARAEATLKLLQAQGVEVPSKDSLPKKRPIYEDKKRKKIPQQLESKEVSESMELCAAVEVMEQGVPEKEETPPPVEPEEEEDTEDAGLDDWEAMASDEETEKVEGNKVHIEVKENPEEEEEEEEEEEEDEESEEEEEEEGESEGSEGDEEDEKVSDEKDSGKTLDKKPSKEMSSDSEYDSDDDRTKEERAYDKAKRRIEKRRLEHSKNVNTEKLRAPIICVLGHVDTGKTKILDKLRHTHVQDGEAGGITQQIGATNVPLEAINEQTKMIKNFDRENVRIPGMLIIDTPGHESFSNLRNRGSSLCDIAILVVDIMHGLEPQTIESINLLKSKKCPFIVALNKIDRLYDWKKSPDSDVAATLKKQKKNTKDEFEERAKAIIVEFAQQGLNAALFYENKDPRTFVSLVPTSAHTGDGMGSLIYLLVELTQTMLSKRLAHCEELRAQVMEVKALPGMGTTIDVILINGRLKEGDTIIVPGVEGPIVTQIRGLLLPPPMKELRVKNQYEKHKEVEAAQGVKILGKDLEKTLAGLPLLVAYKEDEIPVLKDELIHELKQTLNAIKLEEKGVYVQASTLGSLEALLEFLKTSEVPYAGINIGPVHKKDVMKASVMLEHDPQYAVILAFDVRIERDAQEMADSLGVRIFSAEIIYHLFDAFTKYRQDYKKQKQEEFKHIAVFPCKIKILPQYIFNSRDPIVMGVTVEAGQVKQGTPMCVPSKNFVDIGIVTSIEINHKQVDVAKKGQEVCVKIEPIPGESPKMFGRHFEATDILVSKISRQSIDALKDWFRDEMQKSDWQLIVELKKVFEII
# UniProt Q9H223: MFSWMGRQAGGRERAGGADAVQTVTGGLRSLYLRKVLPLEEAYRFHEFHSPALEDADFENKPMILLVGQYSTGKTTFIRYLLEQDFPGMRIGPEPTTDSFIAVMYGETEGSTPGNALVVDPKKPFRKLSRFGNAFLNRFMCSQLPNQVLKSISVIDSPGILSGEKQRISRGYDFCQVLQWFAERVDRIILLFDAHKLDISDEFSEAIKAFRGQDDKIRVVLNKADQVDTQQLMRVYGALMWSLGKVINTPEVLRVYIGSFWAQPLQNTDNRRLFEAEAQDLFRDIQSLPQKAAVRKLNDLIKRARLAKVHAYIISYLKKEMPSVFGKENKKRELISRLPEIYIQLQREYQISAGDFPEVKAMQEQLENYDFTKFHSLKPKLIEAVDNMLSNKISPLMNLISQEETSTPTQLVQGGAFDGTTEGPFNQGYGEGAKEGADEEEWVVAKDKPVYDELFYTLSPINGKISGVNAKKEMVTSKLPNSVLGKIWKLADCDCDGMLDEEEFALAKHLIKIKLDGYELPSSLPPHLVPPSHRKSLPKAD
# This is one part of the list.
# Compound: Nc1ccccc1NC(=O)c1ccc(CNC(=O)OCc2cccnc2)cc1 [entinostat]
# Experiment: log2 fold change, soluble protein after heating vs DMSO (PISA); higher = thermal stabilisation; K562 cells, 10 uM, 30 min; active = over 0.2 and 3.5 SD of the protein, either way, in both replicates (recomputed)
# Procedure, shortened: (§1)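 K562 cells at 2×10^6 cells/mL were treated for 30 min with 10 μM compound, and aliquots were heated for 3 min over 48°C-58°C before pooling. Extraction used PBS with 0.5% NP-40 at 4°C, and soluble protein was the supernatant after 21,000xg for 90 min, measured by TMTpro 16plex LC-MS/MS with channel sums equalised. Thermal stability values, relative to control samples and from duplicates, are log2 fold changes.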
row,Target,log2 fold change
1,ENY2 (UniProt Q9NPA8),inactive: 0.002
2,EGLN1 (UniProt Q9GZT9),inactive: -0.009
3,EIF3K (UniProt Q9UBQ5),inactive: 0.092
4,"EED, A0A5F9ZI63",inactive: -0.039
5,ELOVL5 isoform 2 (UniProt Q9NYP7),inactive: 0.056
6,ENO1 isoform 2 (UniProt P06733),inactive: -0.076
7,EIF5 (UniProt P55010),inactive: 0.027
8,EMC8 (UniProt O43402),inactive: 0.002
9,EHHADH (UniProt Q08426),inactive: -0.015
10,EIF2AK2 (UniProt P19525),inactive: 0.041
11,EIF4B (UniProt P23588),inactive: -0.006
12,EIF4A3 (UniProt P38919),inactive: -0.016
13,EMD (UniProt P50402),inactive: -0.031
14,EIF4ENIF1 isoform 3 (UniProt Q9NRA8),inactive: -0.004
15,EIF4G2 (UniProt P78344),inactive: 0.073
16,EIF4A1 (UniProt P60842),inactive: 0.079
17,EEF1D isoform 2 (UniProt P29692),inactive: 0.018

row,Target,log2 fold change
1,EEF1B2 (UniProt P24534),inactive: 0.04
2,ELP3 (UniProt Q9H9T3),inactive: 0.009
3,ENGASE (UniProt Q8NFI3),inactive: -0.038
4,ELP4 (UniProt Q96EB1),inactive: -0.026
5,ELP4 isoform 3 (UniProt Q96EB1),inactive: -0.038
6,ELP6 (UniProt Q0PNE2),inactive: -0.032
7,ENOPH1 (UniProt Q9UHY7),inactive: 0.122
8,ELOF1 (UniProt P60002),inactive: 0.018
9,EI24 (UniProt O14681),inactive: 0.004
10,EIF4A2 isoform 2 (UniProt Q14240),inactive: 0.044
11,EML3 isoform 2 (UniProt Q32P44),inactive: -0.08
12,EIF3H (UniProt O15372),inactive: 0.034
13,EIF5B (UniProt O60841),inactive: 0.028
14,ELP5 isoform 4 (UniProt Q8TE02),inactive: -0.019
15,EHD4 (UniProt Q9H223),inactive: 0.002
16,EIF3I (UniProt Q13347),inactive: 0.056

# Compound: O=C(CCCCCCC(=O)Nc1ccccc1)NO [vorinostat]
# Experiment: as above
# Procedure, shortened: as §1
row,Target,log2 fold change
1,ENY2 (UniProt Q9NPA8),inactive: 0
2,EGLN1 (UniProt Q9GZT9),inactive: 0.021
3,EIF3K (UniProt Q9UBQ5),inactive: -0.006
4,"EED, A0A5F9ZI63",inactive: 0.021
5,ELOVL5 isoform 2 (UniProt Q9NYP7),inactive: 0.062
6,ENO1 isoform 2 (UniProt P06733),inactive: 0.138
7,EIF5 (UniProt P55010),inactive: 0.001
8,EMC8 (UniProt O43402),inactive: -0.01
9,EHHADH (UniProt Q08426),inactive: 0.036
10,EIF2AK2 (UniProt P19525),inactive: 0.084
11,EIF4B (UniProt P23588),inactive: -0.04
12,EIF4A3 (UniProt P38919),inactive: -0.039
13,EMD (UniProt P50402),inactive: -0.017
14,EIF4ENIF1 isoform 3 (UniProt Q9NRA8),inactive: -0.061
15,EIF4G2 (UniProt P78344),inactive: 0.047
16,EIF4A1 (UniProt P60842),inactive: 0.068
17,EEF1D isoform 2 (UniProt P29692),inactive: -0.02

row,Target,log2 fold change
1,EEF1B2 (UniProt P24534),inactive: 0.02
2,ELP3 (UniProt Q9H9T3),inactive: -0.008
3,ENGASE (UniProt Q8NFI3),inactive: 0.021
4,ELP4 (UniProt Q96EB1),inactive: -0.005
5,ELP4 isoform 3 (UniProt Q96EB1),inactive: 0.009
6,ELP6 (UniProt Q0PNE2),inactive: -0.053
7,ENOPH1 (UniProt Q9UHY7),inactive: 0.046
8,ELOF1 (UniProt P60002),inactive: -0.064
9,EI24 (UniProt O14681),inactive: 0.005
10,EIF4A2 isoform 2 (UniProt Q14240),inactive: 0.023
11,EML3 isoform 2 (UniProt Q32P44),inactive: -0.017
12,EIF3H (UniProt O15372),inactive: 0.019
13,EIF5B (UniProt O60841),inactive: 0.037
14,ELP5 isoform 4 (UniProt Q8TE02),inactive: -0.004
15,EHD4 (UniProt Q9H223),inactive: 0.04
16,EIF3I (UniProt Q13347),inactive: 0.044

# Compound: O=C(CCCCCCNC(=O)c1cnc(N(c2ccccc2)c2ccccc2Cl)nc1)NO [citarinostat]
# Experiment: as above
# Procedure, shortened: as §1
row,Target,log2 fold change
1,ENY2 (UniProt Q9NPA8),inactive: 0.096
2,EGLN1 (UniProt Q9GZT9),inactive: 0.034
3,EIF3K (UniProt Q9UBQ5),inactive: 0.021
4,"EED, A0A5F9ZI63",inactive: 0.098
5,ELOVL5 isoform 2 (UniProt Q9NYP7),inactive: 0
6,ENO1 isoform 2 (UniProt P06733),inactive: 0.128
7,EIF5 (UniProt P55010),inactive: -0.013
8,EMC8 (UniProt O43402),inactive: 0.035
9,EHHADH (UniProt Q08426),inactive: 0.015
10,EIF2AK2 (UniProt P19525),inactive: -0.054
11,EIF4B (UniProt P23588),inactive: -0.028
12,EIF4A3 (UniProt P38919),inactive: 0.03
13,EMD (UniProt P50402),inactive: -0.076
14,EIF4ENIF1 isoform 3 (UniProt Q9NRA8),inactive: 0.081
15,EIF4G2 (UniProt P78344),inactive: -0.182
16,EIF4A1 (UniProt P60842),inactive: 0.088
17,EEF1D isoform 2 (UniProt P29692),inactive: 0.017

row,Target,log2 fold change
1,EEF1B2 (UniProt P24534),inactive: 0.004
2,ELP3 (UniProt Q9H9T3),inactive: 0.018
3,ENGASE (UniProt Q8NFI3),inactive: 0.024
4,ELP4 (UniProt Q96EB1),inactive: -0.004
5,ELP4 isoform 3 (UniProt Q96EB1),inactive: 0.043
6,ELP6 (UniProt Q0PNE2),inactive: 0.021
7,ENOPH1 (UniProt Q9UHY7),inactive: 0.031
8,ELOF1 (UniProt P60002),inactive: 0.055
9,EI24 (UniProt O14681),inactive: 0.004
10,EIF4A2 isoform 2 (UniProt Q14240),inactive: 0.056
11,EML3 isoform 2 (UniProt Q32P44),inactive: -0.035
12,EIF3H (UniProt O15372),inactive: 0.061
13,EIF5B (UniProt O60841),inactive: 0.009
14,ELP5 isoform 4 (UniProt Q8TE02),inactive: -0.046
15,EHD4 (UniProt Q9H223),inactive: 0.024
16,EIF3I (UniProt Q13347),inactive: 0.068
